Experimental data as given in patent US10329278B2, “Pharmaceutical compounds” (Heptares Therapeutics Limited, priority 2017, dated 2019).

The chains behind the UniProt entries cited, without tags or fusion partners.
UniProt P11229, whole entry: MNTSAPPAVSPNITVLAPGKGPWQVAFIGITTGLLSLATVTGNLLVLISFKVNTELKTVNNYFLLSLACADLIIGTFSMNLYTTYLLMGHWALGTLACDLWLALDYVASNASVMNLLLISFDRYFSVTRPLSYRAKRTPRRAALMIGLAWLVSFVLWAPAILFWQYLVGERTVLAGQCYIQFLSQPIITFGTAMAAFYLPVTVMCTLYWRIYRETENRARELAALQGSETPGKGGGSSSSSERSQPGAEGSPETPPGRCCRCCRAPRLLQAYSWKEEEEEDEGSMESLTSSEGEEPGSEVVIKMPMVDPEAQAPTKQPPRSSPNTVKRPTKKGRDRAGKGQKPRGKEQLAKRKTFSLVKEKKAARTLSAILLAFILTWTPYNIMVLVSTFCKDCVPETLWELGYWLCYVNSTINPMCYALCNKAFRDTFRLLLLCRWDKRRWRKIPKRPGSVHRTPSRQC
UniProt P08173, whole entry: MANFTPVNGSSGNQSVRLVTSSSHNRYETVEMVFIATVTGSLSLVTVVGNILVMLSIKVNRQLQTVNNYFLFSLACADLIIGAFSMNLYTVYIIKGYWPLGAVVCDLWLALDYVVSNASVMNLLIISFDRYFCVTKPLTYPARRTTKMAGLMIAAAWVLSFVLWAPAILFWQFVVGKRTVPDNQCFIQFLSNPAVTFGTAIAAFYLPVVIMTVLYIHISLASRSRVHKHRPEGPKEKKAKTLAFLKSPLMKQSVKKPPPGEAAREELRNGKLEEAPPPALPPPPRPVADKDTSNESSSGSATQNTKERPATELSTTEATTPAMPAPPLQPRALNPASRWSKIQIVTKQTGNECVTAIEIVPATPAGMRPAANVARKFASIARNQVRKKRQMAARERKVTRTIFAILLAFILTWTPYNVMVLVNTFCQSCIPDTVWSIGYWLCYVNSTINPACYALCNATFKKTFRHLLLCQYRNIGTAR

Columns and labels:
[1] = molecular target: human muscarinic M1 receptor (Homo sapiens, UniProt P11229); experiment: Alphascreen Surefire phospho-ERK1/2 functional assay, M1; conditions: CHO cells stably expressing human M1
[2] = molecular target: human muscarinic M4 receptor (Homo sapiens, UniProt P08173); experiment: Alphascreen Surefire phospho-ERK1/2 functional assay, M4; type: cell-based; conditions: CHO cells stably expressing human M4

pEC50 M1 ([1]; agonist 5 min, 37° C.): 4.70 and 7.25
% Emax cf. ACh (M1) ([1]; relative to ACh): 26% and 107%
pEC50 M4 ([2]; agonist 5 min, 37° C.): 5.71 and 6.72
% Emax cf. ACh (M4) ([2]; relative to ACh): 37% and 85%
SMILES: CCOC(=O)N1CCC2(CC(N3C[C@@H]4[C@H](C3)[C@H]4C(=O)N(C)CC)C2)C1 (single isomer, unassigned)

The source holds more than one record for some entries. They are shown here; other results are not. An entry can have further records. The records of an entry differ, and nothing given here explains why; some may be repeats, others may stem from another dose, organism or construct than stated.
